Measurements reported in PubChem BioAssay AID1259425 (University of Nebraska Medical Center, 2018)

- Purpose: 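Find knockdowns that reproduce the gene expression pattern seen when KSR1 is lost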 (primary screen)
- Cells: HCT116 human colon cancer cells
- Knock-down reagent: siRNA pool against human genes, 50 nM siRNA
- Read-out: 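mRNA of six signature genes measured together by branched-DNA assay after 50 nM siRNA pool, blank removed, divided by geometric mean of two housekeeping genes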
- Scale: BNIP3L mRNA: higher = more BNIP3L transcript after knockdown; NDRG1 mRNA: higher = more NDRG1 transcript after knockdown; BNIP3 mRNA: higher = more BNIP3 transcript after knockdown; ALDOC mRNA: higher = more ALDOC transcript after knockdown
The whole screen tested about 14,000 reagents; below is a random part of them. Further read-outs or replicates are left out here. Not stated in the record: the time to read-out.

| gene symbol | BNIP3L mRNA, set 1 | NDRG1 mRNA, set 1 | BNIP3 mRNA, set 1 | ALDOC mRNA, set 1 |
| --- | --- | --- | --- | --- |
| EIF3B (eukaryotic translation initiation factor 3 subunit B) | 0.222 | 0.201 | 0.338 | -0.0233 |
| ACE (angiotensin I converting enzyme) | 0.094 | 0.136 | 0.24 | 0.0275 |
| WDR5B (WD repeat domain 5B) | 0.18 | 0.163 | 0.29 | 0.0422 |
| MADCAM1 (mucosal vascular addressin cell adhesion molecule 1) | 0.189 | 0.604 | 0.236 | 0.0054 |
| SIPA1L1 (signal induced proliferation associated 1 like 1) | 0.0949 | 0.134 | 0.348 | 0.0352 |
| PACSIN2 (protein kinase C and casein kinase substrate in neurons 2) | 0.165 | 0.176 | 0.319 | 0.0161 |
| ADPGK (ADP dependent glucokinase) | 0.0934 | 0.162 | 0.192 | 0.0231 |
| HBQ1 (hemoglobin subunit theta 1) | 0.153 | 0.109 | 0.395 | 0.0213 |
| RNF11 (ring finger protein 11) | 0.0904 | 0.159 | 0.51 | 0.0183 |
| CYP39A1 (cytochrome P450 family 39 subfamily A member 1) | 0.125 | 0.386 | 0.315 | 0.027 |
| GPR25 (G protein-coupled receptor 25) | 0.187 | 0.283 | 0.306 | 0.0384 |
| FES (FES proto-oncogene, tyrosine kinase) | 0.0984 | 0.316 | 0.411 | 0.00461 |

Not a retest: 2 of the entries above.
| gene symbol | BNIP3L mRNA, set 1 | NDRG1 mRNA, set 1 | BNIP3 mRNA, set 1 | ALDOC mRNA, set 1 |
| --- | --- | --- | --- | --- |
| MADCAM1 (mucosal vascular addressin cell adhesion molecule 1) | 0.189 | 0.604 | 0.236 | 0.0054 |
| SIPA1L1 (signal induced proliferation associated 1 like 1) | 0.0949 | 0.134 | 0.348 | 0.0352 |

Further entries:
| gene symbol | BNIP3L mRNA, set 1 | NDRG1 mRNA, set 1 | BNIP3 mRNA, set 1 | ALDOC mRNA, set 1 |
| --- | --- | --- | --- | --- |
| EXD3 (exonuclease 3'-5' domain containing 3) | 0.108 | 0.121 | 0.286 | 0.026 |
| SLC1A5 | 0.158 | 0.186 | 0.248 | 0.0278 |
| CCNG1 (cyclin G1) | 0.0973 | 0.106 | 0.324 | 0.0147 |
| LRP11 (LDL receptor related protein 11) | 0.2 | 0.734 | 0.301 | 0.036 |
| PCDHB2 (protocadherin beta 2) | 0.14 | 0.122 | 0.302 | 0.0189 |
| WDR73 (WD repeat domain 73) | 0.185 | 0.298 | 0.383 | 0.114 |
| FCGRT (Fc gamma receptor and transporter) | 0.0834 | 0.0812 | 0.291 | 0.0297 |
| GPR156 (G protein-coupled receptor 156) | 0.17 | 0.308 | 0.278 | 0.0926 |
